Reference: the supplement of paper PMC10849652
This is one part of the list.

Protein sequences, listed by entry. Tags and fused reporters are not part of them. Lines headed by an entry give the natural chain unless they say otherwise; changes in a name come on top.
UniProt Q9H6F5: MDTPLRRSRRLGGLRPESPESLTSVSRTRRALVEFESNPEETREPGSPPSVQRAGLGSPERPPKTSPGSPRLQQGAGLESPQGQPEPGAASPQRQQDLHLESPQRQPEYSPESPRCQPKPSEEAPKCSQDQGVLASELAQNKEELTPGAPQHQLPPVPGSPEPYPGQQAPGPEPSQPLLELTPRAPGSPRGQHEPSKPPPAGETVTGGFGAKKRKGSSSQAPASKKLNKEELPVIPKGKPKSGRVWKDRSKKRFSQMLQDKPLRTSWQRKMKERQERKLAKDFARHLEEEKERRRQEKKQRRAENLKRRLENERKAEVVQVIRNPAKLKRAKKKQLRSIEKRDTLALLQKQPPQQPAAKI
UniProt Q8N163, whole entry, looked up: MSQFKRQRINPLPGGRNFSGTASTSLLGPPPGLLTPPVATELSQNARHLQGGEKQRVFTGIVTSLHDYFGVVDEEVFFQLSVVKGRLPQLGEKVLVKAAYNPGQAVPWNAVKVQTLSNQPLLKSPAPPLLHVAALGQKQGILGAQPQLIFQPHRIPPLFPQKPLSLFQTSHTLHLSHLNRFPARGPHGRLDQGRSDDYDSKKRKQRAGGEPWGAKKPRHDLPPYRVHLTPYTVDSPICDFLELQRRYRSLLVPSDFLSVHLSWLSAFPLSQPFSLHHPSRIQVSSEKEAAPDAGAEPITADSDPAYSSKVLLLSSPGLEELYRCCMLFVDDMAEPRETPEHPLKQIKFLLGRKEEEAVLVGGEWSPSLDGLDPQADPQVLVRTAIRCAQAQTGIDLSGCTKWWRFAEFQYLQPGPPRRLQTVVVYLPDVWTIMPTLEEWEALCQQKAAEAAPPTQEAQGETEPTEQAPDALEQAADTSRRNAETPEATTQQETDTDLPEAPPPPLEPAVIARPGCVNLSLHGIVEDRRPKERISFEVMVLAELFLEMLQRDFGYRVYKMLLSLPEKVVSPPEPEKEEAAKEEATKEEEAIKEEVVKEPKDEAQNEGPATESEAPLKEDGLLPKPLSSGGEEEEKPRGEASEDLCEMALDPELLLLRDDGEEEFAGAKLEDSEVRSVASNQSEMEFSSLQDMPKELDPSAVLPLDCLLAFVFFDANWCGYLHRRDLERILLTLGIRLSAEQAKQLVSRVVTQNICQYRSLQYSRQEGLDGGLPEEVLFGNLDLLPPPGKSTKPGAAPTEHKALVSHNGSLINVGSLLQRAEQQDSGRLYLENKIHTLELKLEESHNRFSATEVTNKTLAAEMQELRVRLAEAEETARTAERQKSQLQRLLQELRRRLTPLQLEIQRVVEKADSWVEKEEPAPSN
UniProt Q9Y2G2: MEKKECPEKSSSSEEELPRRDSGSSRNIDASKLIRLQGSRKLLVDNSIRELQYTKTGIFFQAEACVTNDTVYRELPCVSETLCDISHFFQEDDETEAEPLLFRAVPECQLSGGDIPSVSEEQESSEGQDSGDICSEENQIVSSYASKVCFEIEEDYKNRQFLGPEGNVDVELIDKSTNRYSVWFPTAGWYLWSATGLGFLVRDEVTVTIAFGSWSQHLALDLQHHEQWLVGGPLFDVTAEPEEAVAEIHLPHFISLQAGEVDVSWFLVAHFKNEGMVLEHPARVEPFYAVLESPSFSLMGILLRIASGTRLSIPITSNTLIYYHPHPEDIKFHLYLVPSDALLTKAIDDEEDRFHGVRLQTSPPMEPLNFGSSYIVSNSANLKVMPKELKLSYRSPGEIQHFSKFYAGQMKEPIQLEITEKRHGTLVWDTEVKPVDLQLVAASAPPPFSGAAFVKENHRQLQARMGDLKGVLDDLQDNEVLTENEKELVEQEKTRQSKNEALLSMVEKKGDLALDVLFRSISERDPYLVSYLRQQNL
UniProt P42575: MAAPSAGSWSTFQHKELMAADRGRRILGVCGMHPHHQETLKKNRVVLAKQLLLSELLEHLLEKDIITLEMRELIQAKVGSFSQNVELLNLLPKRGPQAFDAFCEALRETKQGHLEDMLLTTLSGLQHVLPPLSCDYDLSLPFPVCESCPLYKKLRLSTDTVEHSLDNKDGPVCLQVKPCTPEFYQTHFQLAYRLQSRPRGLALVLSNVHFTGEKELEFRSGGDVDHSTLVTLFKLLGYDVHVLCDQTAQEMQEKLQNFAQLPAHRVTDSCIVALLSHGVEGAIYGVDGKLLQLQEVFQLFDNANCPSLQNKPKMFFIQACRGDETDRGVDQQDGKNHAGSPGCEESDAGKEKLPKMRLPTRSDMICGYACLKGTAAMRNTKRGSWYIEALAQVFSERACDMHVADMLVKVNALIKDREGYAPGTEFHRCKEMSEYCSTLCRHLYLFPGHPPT
UniProt Q9BUN5: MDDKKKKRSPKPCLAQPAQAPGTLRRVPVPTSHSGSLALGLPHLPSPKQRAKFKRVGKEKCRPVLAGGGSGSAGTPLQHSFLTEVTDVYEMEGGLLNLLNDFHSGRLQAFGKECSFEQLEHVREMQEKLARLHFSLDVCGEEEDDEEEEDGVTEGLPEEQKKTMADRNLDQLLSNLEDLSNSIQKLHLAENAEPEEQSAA
UniProt P42574: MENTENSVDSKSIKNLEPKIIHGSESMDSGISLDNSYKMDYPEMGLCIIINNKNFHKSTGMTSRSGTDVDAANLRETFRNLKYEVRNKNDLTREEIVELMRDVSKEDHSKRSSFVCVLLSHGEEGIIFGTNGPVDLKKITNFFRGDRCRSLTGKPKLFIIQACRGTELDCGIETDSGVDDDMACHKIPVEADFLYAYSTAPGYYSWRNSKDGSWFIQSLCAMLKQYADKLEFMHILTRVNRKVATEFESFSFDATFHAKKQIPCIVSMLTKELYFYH
UniProt P24863: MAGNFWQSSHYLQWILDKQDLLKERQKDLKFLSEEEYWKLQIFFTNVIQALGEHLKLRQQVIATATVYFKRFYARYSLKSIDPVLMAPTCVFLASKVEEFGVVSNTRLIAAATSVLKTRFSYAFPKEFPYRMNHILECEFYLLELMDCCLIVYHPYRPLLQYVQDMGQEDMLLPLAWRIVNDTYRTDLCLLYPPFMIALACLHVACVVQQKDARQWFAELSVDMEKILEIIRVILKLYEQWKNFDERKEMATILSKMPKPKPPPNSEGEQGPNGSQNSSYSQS
UniProt Q16204: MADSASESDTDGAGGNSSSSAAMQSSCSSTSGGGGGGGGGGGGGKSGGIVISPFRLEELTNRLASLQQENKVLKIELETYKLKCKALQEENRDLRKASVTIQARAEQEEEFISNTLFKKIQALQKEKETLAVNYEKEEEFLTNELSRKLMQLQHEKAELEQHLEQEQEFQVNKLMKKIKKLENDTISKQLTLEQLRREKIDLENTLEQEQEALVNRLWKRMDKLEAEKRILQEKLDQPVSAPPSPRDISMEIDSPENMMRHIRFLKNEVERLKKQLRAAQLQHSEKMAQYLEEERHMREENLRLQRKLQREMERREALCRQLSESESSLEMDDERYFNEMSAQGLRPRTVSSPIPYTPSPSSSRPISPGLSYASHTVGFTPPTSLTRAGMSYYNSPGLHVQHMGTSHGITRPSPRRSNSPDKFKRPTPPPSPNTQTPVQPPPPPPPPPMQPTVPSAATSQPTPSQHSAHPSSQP
UniProt P49368: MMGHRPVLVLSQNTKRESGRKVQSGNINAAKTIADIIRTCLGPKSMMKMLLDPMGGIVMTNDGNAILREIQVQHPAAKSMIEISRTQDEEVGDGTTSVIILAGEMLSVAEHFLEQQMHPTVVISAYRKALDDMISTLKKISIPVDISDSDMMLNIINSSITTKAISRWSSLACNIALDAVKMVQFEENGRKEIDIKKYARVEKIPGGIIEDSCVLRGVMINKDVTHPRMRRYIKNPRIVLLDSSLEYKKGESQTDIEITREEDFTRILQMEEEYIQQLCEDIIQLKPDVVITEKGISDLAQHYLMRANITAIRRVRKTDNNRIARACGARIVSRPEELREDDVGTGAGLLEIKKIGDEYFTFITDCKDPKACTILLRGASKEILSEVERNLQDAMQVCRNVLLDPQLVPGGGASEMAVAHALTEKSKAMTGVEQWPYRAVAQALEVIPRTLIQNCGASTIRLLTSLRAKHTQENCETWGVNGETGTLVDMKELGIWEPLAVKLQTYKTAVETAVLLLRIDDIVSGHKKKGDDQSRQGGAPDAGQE
UniProt Q8N4T8: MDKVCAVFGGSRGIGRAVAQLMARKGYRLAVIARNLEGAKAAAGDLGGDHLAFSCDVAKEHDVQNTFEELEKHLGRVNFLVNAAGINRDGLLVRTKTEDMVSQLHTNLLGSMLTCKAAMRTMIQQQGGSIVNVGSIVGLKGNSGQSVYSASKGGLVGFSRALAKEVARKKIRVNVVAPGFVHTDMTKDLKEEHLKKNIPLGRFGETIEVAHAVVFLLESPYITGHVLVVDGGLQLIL
UniProt Q9Y2V2: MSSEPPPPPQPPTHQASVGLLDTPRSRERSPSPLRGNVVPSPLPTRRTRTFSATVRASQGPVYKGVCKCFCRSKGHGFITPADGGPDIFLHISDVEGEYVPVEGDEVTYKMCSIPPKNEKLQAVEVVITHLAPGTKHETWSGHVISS
UniProt P04040: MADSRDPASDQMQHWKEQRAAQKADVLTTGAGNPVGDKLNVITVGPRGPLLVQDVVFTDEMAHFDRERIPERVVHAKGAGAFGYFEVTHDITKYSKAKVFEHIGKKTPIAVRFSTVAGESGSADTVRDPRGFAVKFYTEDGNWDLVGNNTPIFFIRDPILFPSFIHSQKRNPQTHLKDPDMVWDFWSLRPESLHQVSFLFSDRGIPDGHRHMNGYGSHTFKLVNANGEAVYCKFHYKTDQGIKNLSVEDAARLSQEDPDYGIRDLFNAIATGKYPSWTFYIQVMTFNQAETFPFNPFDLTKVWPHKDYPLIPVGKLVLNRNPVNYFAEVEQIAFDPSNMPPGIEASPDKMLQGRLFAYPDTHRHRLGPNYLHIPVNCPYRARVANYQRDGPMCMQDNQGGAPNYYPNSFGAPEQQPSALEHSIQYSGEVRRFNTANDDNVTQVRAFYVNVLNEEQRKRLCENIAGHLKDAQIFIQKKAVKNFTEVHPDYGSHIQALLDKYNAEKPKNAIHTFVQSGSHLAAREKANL
UniProt O15234, whole entry, looked up: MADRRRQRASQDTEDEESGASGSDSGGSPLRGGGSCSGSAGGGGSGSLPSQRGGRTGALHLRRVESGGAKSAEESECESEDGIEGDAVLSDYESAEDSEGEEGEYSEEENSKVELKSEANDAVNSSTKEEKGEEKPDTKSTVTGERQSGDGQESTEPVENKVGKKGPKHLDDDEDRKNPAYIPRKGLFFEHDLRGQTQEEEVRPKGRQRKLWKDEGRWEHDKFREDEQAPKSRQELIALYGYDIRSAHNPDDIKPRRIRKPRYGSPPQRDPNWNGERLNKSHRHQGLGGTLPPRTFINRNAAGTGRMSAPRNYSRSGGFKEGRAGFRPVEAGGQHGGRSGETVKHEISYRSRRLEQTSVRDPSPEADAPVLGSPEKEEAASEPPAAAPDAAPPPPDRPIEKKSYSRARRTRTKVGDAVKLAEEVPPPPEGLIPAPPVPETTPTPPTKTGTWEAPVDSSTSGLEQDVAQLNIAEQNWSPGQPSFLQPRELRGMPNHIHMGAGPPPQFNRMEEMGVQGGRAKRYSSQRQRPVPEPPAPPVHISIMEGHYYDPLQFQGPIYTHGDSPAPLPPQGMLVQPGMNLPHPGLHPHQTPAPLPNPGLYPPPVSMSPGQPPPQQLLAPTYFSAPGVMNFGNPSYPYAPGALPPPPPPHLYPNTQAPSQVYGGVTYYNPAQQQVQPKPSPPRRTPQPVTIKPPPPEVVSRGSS
UniProt O15446, whole entry, looked up: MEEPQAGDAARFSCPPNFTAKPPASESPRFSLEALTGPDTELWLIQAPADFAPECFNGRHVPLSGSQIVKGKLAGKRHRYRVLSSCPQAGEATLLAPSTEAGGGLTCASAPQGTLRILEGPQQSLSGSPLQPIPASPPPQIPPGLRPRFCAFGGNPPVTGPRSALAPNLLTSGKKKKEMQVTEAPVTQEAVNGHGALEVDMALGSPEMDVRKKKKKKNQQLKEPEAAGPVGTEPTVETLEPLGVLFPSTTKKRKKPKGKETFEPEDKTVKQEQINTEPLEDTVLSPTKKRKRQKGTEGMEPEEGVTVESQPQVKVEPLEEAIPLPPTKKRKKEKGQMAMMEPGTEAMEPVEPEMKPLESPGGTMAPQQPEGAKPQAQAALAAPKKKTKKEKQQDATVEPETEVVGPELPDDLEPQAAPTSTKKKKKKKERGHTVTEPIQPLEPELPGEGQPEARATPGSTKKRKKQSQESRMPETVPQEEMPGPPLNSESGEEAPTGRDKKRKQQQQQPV

Tests used:
Test in all cases: log2 fold change, soluble protein after heating vs DMSO (PISA); higher = thermal stabilisation; K562 lysate, 10 uM; active = over 0.2 and 3.5 SD of the protein, either way, in both replicates (recomputed)
lapatinib = compound: CS(=O)(=O)CCNCc1ccc(-c2ccc3ncnc(Nc4ccc(OCc5cccc(F)c5)c(Cl)c4)c3c2)o1 [lapatinib]
Method in brief: (§1)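 A 30 min treatment with 10 μM compound was applied to crude K562 extract at 1 mg/mL protein in PBS pH 7.4 with 1 mM MgCl2. Heating for 3 min spanned 48°C-58°C, after which aliquots were pooled, adjusted to 0.5% NP-40 at 4°C and spun at 21,000xg for 90 min. TMTpro 16plex LC-MS/MS of the supernatant, with channel sums equalised, gave values recorded as log-two fold change in thermal stability against solvent controls, from duplicates.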

pictilisib = compound: CS(=O)(=O)N1CCN(Cc2cc3nc(-c4cccc5[nH]ncc45)nc(N4CCOCC4)c3s2)CC1 [pictilisib]
Method in brief: as §1

crizotinib = compound: C[C@@H](Oc1cc(-c2cnn(C3CCNCC3)c2)cnc1N)c1c(Cl)ccc(F)c1Cl [crizotinib]
Method in brief: as §1

[1] = compound: C[C@H](C1=CC=C(C=C1)C(=O)NC2=C3C=CNC3=NC=C2)N
Method in brief: as §1

duvelisib = compound: C[C@H](Nc1ncnc2nc[nH]c12)c1cc2cccc(Cl)c2c(=O)n1-c1ccccc1 [duvelisib]
Method in brief: as §1

gandotinib = compound: Cc1cc(Nc2cc(CN3CCOCC3)c3nc(C)c(Cc4ccc(Cl)cc4F)n3n2)n[nH]1 [gandotinib]
Method in brief: as §1

tozasertib = compound: Cc1cc(Nc2cc(N3CCN(C)CC3)nc(Sc3ccc(NC(=O)C4CC4)cc3)n2)n[nH]1 [tozasertib]
Method in brief: as §1

doramapimod = compound: Cc1ccc(-n2nc(C(C)(C)C)cc2NC(=O)Nc2ccc(OCCN3CCOCC3)c3ccccc23)cc1 [doramapimod]
Method in brief: as §1

bafetinib = compound: Cc1ccc(NC(=O)c2ccc(CN3CC[C@H](N(C)C)C3)c(C(F)(F)F)c2)cc1Nc1nccc(-c2cncnc2)n1 [bafetinib]
Method in brief: as §1

[2] = compound: Cc1cccc(CC(=O)N2CCc3c2ccc(-c2cn(C)c4ncnc(N)c24)c3F)n1
Method in brief: as §1

nilotinib = compound: Cc1cn(-c2cc(NC(=O)c3ccc(C)c(Nc4nccc(-c5cccnc5)n4)c3)cc(C(F)(F)F)c2)cn1 [nilotinib]
Method in brief: as §1

[3] = compound: Cc1nc(Nc2n[nH]c3c2CN(C(=O)N[C@H](CN(C)C)c2ccccc2)C3(C)C)c2sccc2n1
Method in brief: as §1

dasatinib = compound: Cc1nc(Nc2ncc(C(=O)Nc3c(C)cccc3Cl)s2)cc(N2CCN(CCO)CC2)n1 [dasatinib]
Method in brief: as §1

[4] = compound: Cc1ncc(-c2ccnc(Nc3ccc(S(C)(=O)=O)cc3)n2)n1C(C)C
Method in brief: as §1

[5] = compound: Cn1cc(-c2ccc3c(c2)CCN3C(=O)Cc2cccc(C(F)(F)F)c2)c2c(N)ncnc21
Method in brief: as §1

quisinostat = compound: Cn1cc(CNCC2CCN(c3ncc(C(=O)NO)cn3)CC2)c2ccccc21 [quisinostat]
Method in brief: as §1

tipifarnib = compound: Cn1cncc1[C@@](N)(c1ccc(Cl)cc1)c1ccc2c(c1)c(-c1cccc(Cl)c1)cc(=O)n2C [tipifarnib]
Method in brief: as §1

[6] = compound: NC(=O)Nc1cc(-c2cccc(F)c2)sc1C(=O)N[C@H]1CCCNC1
Method in brief: as §1

[7] = compound: NC(=O)c1cnc(N[C@@H]2CCCC[C@@H]2N)nc1Nc1cccc(-n2nccn2)c1
Method in brief: as §1

[8] = compound: NC1(c2ccc(-c3nc4ccn5c(=O)[nH]nc5c4cc3-c3ccccc3)cc2)CCC1
Method in brief: as §1

Target	log2 fold change (lapatinib)	log2 fold change (pictilisib)	log2 fold change (crizotinib)	log2 fold change [1]	log2 fold change (duvelisib)	log2 fold change (gandotinib)	log2 fold change (tozasertib)	log2 fold change (doramapimod)	log2 fold change (bafetinib)	log2 fold change [2]	log2 fold change (nilotinib)	log2 fold change [3]	log2 fold change (dasatinib)	log2 fold change [4]	log2 fold change [5]	log2 fold change (quisinostat)	log2 fold change (tipifarnib)	log2 fold change [6]	log2 fold change [7]	log2 fold change [8]
CCDC86 (UniProt Q9H6F5)	inactive: 0.001	inactive: -0.033	inactive: 0	inactive: -0.055	inactive: 0.004	inactive: 0.02	inactive: -0.028	inactive: -0.008	inactive: -0.012	inactive: 0.062	inactive: 0.047	inactive: 0.017	inactive: 0.054	inactive: 0.06	inactive: -0.009	inactive: -0.02	inactive: 0.035	inactive: 0.001	inactive: 0.025	inactive: -0.024
CCAR2 (UniProt Q8N163)	inactive: 0.002	inactive: -0.061	inactive: -0.067	inactive: -0.009	inactive: -0.015	inactive: 0.058	inactive: 0.026	inactive: 0.022	inactive: -0.011	inactive: 0.06	inactive: -0.001	inactive: -0.016	inactive: -0.069	inactive: -0.017	inactive: 0.018	inactive: -0.033	inactive: -0.013	inactive: 0.027	inactive: 0.014	inactive: -0.007
CARD8 isoform 5 (UniProt Q9Y2G2)	inactive: -0.012	inactive: 0.043	inactive: -0.014	inactive: -0.05	inactive: 0.052	inactive: 0.173	inactive: -0.009	inactive: -0.006	inactive: -0.067	inactive: 0.12	inactive: 0.001	inactive: -0.023	inactive: 0.013	inactive: 0.06	inactive: -0.045	inactive: 0.004	inactive: -0.031	inactive: 0.02	inactive: 0.048	inactive: -0.016
CASP2 (UniProt P42575)	inactive: -0.001	inactive: 0.008	inactive: 0.045	inactive: -0.066	inactive: 0.004	inactive: 0.055	inactive: 0.007	inactive: -0.004	inactive: 0.029	inactive: 0.046	inactive: 0.03	inactive: 0.001	inactive: 0.019	inactive: 0.006	inactive: -0.026	inactive: 0.066	inactive: 0.009	inactive: 0.013	inactive: 0.004	inactive: 0.012
CCDC28B (UniProt Q9BUN5)	inactive: 0.138	inactive: 0.101	inactive: 0.147	inactive: -0.141	inactive: 0.044	inactive: 0.243	inactive: -0.091	inactive: -0.066	inactive: -0.162	inactive: 0.091	inactive: -0.181	inactive: 0.278	inactive: -0.1	inactive: -0.046	inactive: 0.123	inactive: -0.123	inactive: -0.086	inactive: 0.068	inactive: -0.074	inactive: 0.158
CASP3 (UniProt P42574)	inactive: 0.013	inactive: -0.021	inactive: 0.001	active: 0.249	inactive: 0.007	inactive: -0.084	inactive: -0.016	inactive: 0.005	inactive: 0.107	inactive: -0.089	inactive: 0.032	inactive: -0.024	inactive: 0.053	inactive: 0.023	inactive: 0.008	inactive: -0.029	inactive: -0.033	inactive: 0	inactive: -0.01	inactive: 0.022
CCNC (UniProt P24863)	inactive: -0.108	inactive: 0.036	inactive: -0.037	inactive: 0.075	inactive: 0.009	inactive: -0.104	inactive: -0.025	active: 0.332	inactive: -0.123	inactive: 0.015	inactive: 0.013	inactive: 0.035	inactive: 0.04	inactive: 0.202	inactive: -0.017	inactive: 0	inactive: -0.049	inactive: 0.048	inactive: -0.007	inactive: -0.029
CCDC6 (UniProt Q16204)	inactive: 0.011	inactive: 0.028	inactive: 0.003	inactive: -0.017	inactive: -0.02	inactive: 0.056	inactive: -0.02	inactive: 0.005	inactive: 0.013	inactive: -0.005	inactive: 0.01	inactive: -0.007	inactive: 0.013	inactive: -0.011	inactive: 0.001	inactive: 0	inactive: 0.002	inactive: -0.008	inactive: -0.014	inactive: 0.017
CCT3 (UniProt P49368)	inactive: -0.015	inactive: 0.002	inactive: 0.012	inactive: 0.039	inactive: 0.057	inactive: -0.013	inactive: -0.004	inactive: 0.02	inactive: 0.03	inactive: -0.021	inactive: 0.006	inactive: 0.01	inactive: 0.048	inactive: 0.007	inactive: 0.014	inactive: 0.023	inactive: -0.012	inactive: -0.009	inactive: -0.006	inactive: 0.009
CBR4 (UniProt Q8N4T8)	inactive: 0.002	inactive: -0.002	inactive: 0.013	inactive: 0.271	inactive: 0.013	inactive: -0.068	inactive: -0.089	inactive: -0.003	inactive: 0.003	inactive: -0.118	inactive: -0.11	inactive: -0.138	inactive: -0.03	inactive: 0.071	inactive: 0	inactive: -0.024	inactive: -0.088	inactive: 0.023	inactive: -0.005	inactive: 0.036
CARHSP1 (UniProt Q9Y2V2)	inactive: -0.014	inactive: -0.08	inactive: 0.011	inactive: -0.053	inactive: 0.003	inactive: 0.047	inactive: 0.003	inactive: -0.012	inactive: -0.033	inactive: 0.019	inactive: 0.037	inactive: -0.037	inactive: 0.017	inactive: -0.004	inactive: -0.04	inactive: -0.006	inactive: 0.035	inactive: -0.034	inactive: -0.026	inactive: -0.001
CAT (UniProt P04040)	inactive: -0.036	inactive: -0.032	inactive: 0.009	inactive: 0.001	inactive: 0.019	inactive: 0.031	inactive: -0.019	inactive: -0.003	inactive: 0.013	inactive: -0.011	inactive: 0.035	inactive: -0.032	inactive: 0.018	inactive: 0.011	inactive: -0.017	inactive: -0.017	inactive: -0.003	inactive: -0.006	inactive: -0.008	inactive: 0.02
CASC3 (UniProt O15234)	inactive: 0.025	inactive: 0.002	inactive: 0.084	inactive: -0.042	inactive: 0.032	inactive: 0.033	inactive: 0.021	inactive: 0.007	inactive: 0.06	inactive: 0.033	inactive: -0.007	inactive: -0.004	inactive: -0.01	inactive: -0.024	inactive: -0.007	inactive: -0.003	inactive: -0.011	inactive: 0	inactive: -0.031	inactive: 0.023
CASP10 isoform 4 (UniProt Q92851)	inactive: -0.02	inactive: 0.022	inactive: -0.025	inactive: -0.029	inactive: -0.017	inactive: -0.023	inactive: -0.038	inactive: 0.019	inactive: 0.005	inactive: 0.02	inactive: -0.017	inactive: 0.018	inactive: -0.011	inactive: 0.05	inactive: 0.034	inactive: 0.002	inactive: -0.013	inactive: 0.004	inactive: 0.009	inactive: -0.002
CD3EAP isoform 2 (UniProt O15446)	inactive: -0.033	inactive: -0.001	inactive: -0.009	inactive: -0.106	inactive: 0.07	inactive: 0.043	inactive: -0.029	inactive: -0.036	inactive: -0.002	inactive: 0.024	inactive: -0.007	inactive: 0.047	inactive: 0.004	inactive: 0.02	inactive: -0.026	inactive: -0.068	inactive: -0.003	inactive: -0.03	inactive: -0.029	inactive: 0.014

Taken from above:
CCNC (UniProt P24863) – log2 fold change (gandotinib): inactive: -0.104
CARD8 isoform 5 (UniProt Q9Y2G2) – log2 fold change (pictilisib): inactive: 0.043
